Source: publication PMC12973532
Results are given in words; binding and its absence hold for the method and conditions named. Binding seen in cells or lysates may run through a third protein. A yes stands for co-enrichment or nearness to the bait. Other partners may have been found.

Sequences of proteins named here, by UniProt entry; tags and fusion partners are left off.
UniProt O00264: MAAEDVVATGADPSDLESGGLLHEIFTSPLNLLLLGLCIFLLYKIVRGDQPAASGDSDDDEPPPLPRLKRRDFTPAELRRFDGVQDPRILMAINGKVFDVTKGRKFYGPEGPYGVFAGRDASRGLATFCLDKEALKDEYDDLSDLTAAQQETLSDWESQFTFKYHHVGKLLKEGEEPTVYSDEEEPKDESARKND

Experiments:
[1] = biological target: FLAG-tagged PGRMC1 (human progesterone receptor membrane component 1) (human) (UniProt O00264); assay: affinity purification with mass spectrometry; FLAG-PGRMC1 stably expressed in HEK293T cells as bait; isolated mitochondria lysed, affinity purification by FLAG; prey filtered with CRAPome, fold-change threshold 2; empty-vector cells as control
[2] = biological target: FLAG-tagged PGRMC1 (human progesterone receptor membrane component 1) (human) (UniProt O00264); assay: affinity purification with mass spectrometry; FLAG-PGRMC1 stably expressed in HepG2 cells as bait; isolated mitochondria lysed, affinity purification by FLAG; prey filtered with CRAPome, fold-change threshold 1.5; empty-vector cells as control

binding [1]	binding [2]	Binder
binds	binds	TMEM214 (human) (protein, UniProt Q6NUQ4 1-689) MATKTAGVGRWEVVKKGRRPGVGAGAGGRGGGRNRRALGEANGVWKYDLTPAIQTTSTLYERGFENIMKRQNKEQVPPPAVEPKKPGNKKQPKKVATPPNQNQKQGRFRSLEEALKALDVADLQKELDKSQSVFSGNPSIWLKDLASYLNYKLQAPLSEPTLSQHTHDYPYSLVSRELRGIIRGLLAKAAGSLELFFDHCLFTMLQELDKTPGESLHGYRICIQAILQDKPKIATANLGKFLELLRSHQSRPAKCLTIMWALGQAGFANLTEGLKVWLGIMLPVLGIKSLSPFAITYLDRLLLMHPNLTKGFGMIGPKDFFPLLDFAYMPNNSLTPSLQEQLCQLYPRLKVLAFGAKPDSTLHTYFPSFLSRATPSCPPEMKKELLSSLTECLTVDPLSASVWRQLYPKHLSQSSLLLEHLLSSWEQIPKKVQKSLQETIQSLKLTNQELLRKGSSNNQDVVTCDMACKGLLQQVQGPRLPWTRLLLLLLVFAVGFLCHDLRSHSSFQASLTGRLLRSSGFLPASQQACAKLYSYSLQGYSWLGETLPLWGSHLLTVVRPSLQLAWAHTNATVSFLSAHCASHLAWFGDSLTSLSQRLQIQLPDSVNQLLRYLRELPLLFHQNVLLPLWHLLLEALAWAQEHCHEACRGEVTWDCMKTQLSEAVHWTWLCLQDITVAFLDWALALISQQ
binds	binds	MFRN2 (human) (protein, UniProt Q96A46 1-364) MELEGRGAGGVAGGPAAGPGRSPGESALLDGWLQRGVGRGAGGGEAGACRPPVRQDPDSGPDYEALPAGATVTTHMVAGAVAGILEHCVMYPIDCVKTRMQSLQPDPAARYRNVLEALWRIIRTEGLWRPMRGLNVTATGAGPAHALYFACYEKLKKTLSDVIHPGGNSHIANGAAGCVATLLHDAAMNPAEVVKQRMQMYNSPYHRVTDCVRAVWQNEGAGAFYRSYTTQLTMNVPFQAIHFMTYEFLQEHFNPQRRYNPSSHVLSGACAGAVAAAATTPLDVCKTLLNTQESLALNSHITGHITGMASAFRTVYQVGGVTAYFRGVQARVIYQIPSTAIAWSVYEFFKYLITKRQEEWRAGK
binds	binds	DNAJC11 (human) (protein, UniProt Q9NVH1 1-559) MATALSEEELDNEDYYSLLNVRREASSEELKAAYRRLCMLYHPDKHRDPELKSQAERLFNLVHQAYEVLSDPQTRAIYDIYGKRGLEMEGWEVVERRRTPAEIREEFERLQREREERRLQQRTNPKGTISVGVDATDLFDRYDEEYEDVSGSSFPQIEINKMHISQSIEAPLTATDTAILSGSLSTQNGNGGGSINFALRRVTSAKGWGELEFGAGDLQGPLFGLKLFRNLTPRCFVTTNCALQFSSRGIRPGLTTVLARNLDKNTVGYLQWRWGIQSAMNTSIVRDTKTSHFTVALQLGIPHSFALISYQHKFQDDDQTRVKGSLKAGFFGTVVEYGAERKISRHSVLGAAVSVGVPQGVSLKVKLNRASQTYFFPIHLTDQLLPSAMFYATVGPLVVYFAMHRLIIKPYLRAQKEKELEKQRESAATDVLQKKQEAESAVRLMQESVRRIIEAEESRMGLIIVNAWYGKFVNDKSRKSEKVKVIDVTVPLQCLVKDSKLILTEASKAGLPGFYDPCVGEEKNLKVLYQFRGVLHQVMVLDSEALRIPKQSHRIDTDG
binds	binds	SAMM50 (human) (protein, UniProt Q9Y512 1-469) MGTVHARSLEPLPSSGPDFGGLGEEAEFVEVEPEAKQEILENKDVVVQHVHFDGLGRTKDDIIICEIGDVFKAKNLIEVMRKSHEAREKLLRLGIFRQVDVLIDTCQGDDALPNGLDVTFEVTELRRLTGSYNTMVGNNEGSMVLGLKLPNLLGRAEKVTFQFSYGTKETSYGLSFFKPRPGNFERNFSVNLYKVTGQFPWSSLRETDRGMSAEYSFPIWKTSHTVKWEGVWRELGCLSRTASFAVRKESGHSLKSSLSHAMVIDSRNSSILPRRGALLKVNQELAGYTGGDVSFIKEDFELQLNKQLIFDSVFSASFWGGMLVPIGDKPSSIADRFYLGGPTSIRGFSMHSIGPQSEGDYLGGEAYWAGGLHLYTPLPFRPGQGGFGELFRTHFFLNAGNLCNLNYGEGPKAHIRKLAECIRWSYGAGIVLRLGNIARLELNYCVPMGVQTGDRICDGVQFGAGIRFL
binds	binds	HM13 (human) (protein, UniProt Q8TCT9 1-377) MDSALSDPHNGSAEAGGPTNSTTRPPSTPEGIALAYGSLLLMALLPIFFGALRSVRCARGKNASDMPETITSRDAARFPIIASCTLLGLYLFFKIFSQEYINLLLSMYFFVLGILALSHTISPFMNKFFPASFPNRQYQLLFTQGSGENKEEIINYEFDTKDLVCLGLSSIVGVWYLLRKHWIANNLFGLAFSLNGVELLHLNNVSTGCILLGGLFIYDVFWVFGTNVMVTVAKSFEAPIKLVFPQDLLEKGLEANNFAMLGLGDVVIPGIFIALLLRFDISLKKNTHTYFYTSFAAYIFGLGLTIFIMHIFKHAQPALLYLVPACIGFPVLVALAKGEVTEMFSYEESNPKDPAAVTESKEGTEASASKGLEKKEK
binds	binds	BDH1 (human) (protein, UniProt Q02338 47-343) ASAAEPVGSKAVLVTGCDSGFGFSLAKHLHSKGFLVFAGCLMKDKGHDGVKELDSLNSDRLRTVQLNVCSSEEVEKVVEIVRSSLKDPEKGMWGLVNNAGISTFGEVEFTSLETYKQVAEVNLWGTVRMTKSFLPLIRRAKGRVVNISSMLGRMANPARSPYCITKFGVEAFSDCLRYEMYPLGVKVSVVEPGNFIAATSLYSPESIQAIAKKMWEELPEVVRKDYGKKYFDEKIAKMETYCSSGSTDTSPVIDAVTHALTATTPYTRYHPMDYYWWLRMQIMTHLPGAISDMIYIR
binds	binds	heme oxygenase 2 (human) (protein, UniProt P30519 1-316) MSAEVETSEGVDESEKKNSGALEKENQMRMADLSELLKEGTKEAHDRAENTQFVKDFLKGNIKKELFKLATTALYFTYSALEEEMERNKDHPAFAPLYFPMELHRKEALTKDMEYFFGENWEEQVQCPKAAQKYVERIHYIGQNEPELLVAHAYTRYMGDLSGGQVLKKVAQRALKLPSTGEGTQFYLFENVDNAQQFKQLYRARMNALDLNMKTKERIVEEANKAFEYNMQIFNELDQAGSTLARETLEDGFPVHDGKGDMRKCPFYAAEQDKGALEGSSCPFRTAMAVLRKPSLQFILAAGVALAAGLLAWYYM
binds	binds	progesterone receptor membrane protein 2 (human) (protein, UniProt O15173 1-223) MAAGDGDVKLGTLGSGSESSNDGGSESPGDAGAAAEGGGWAAAALALLTGGGEMLLNVALVALVLLGAYRLWVRWGRRGLGAGAGAGEESPATSLPRMKKRDFSLEQLRQYDGSRNPRILLAVNGKVFDVTKGSKFYGPAGPYGIFAGRDASRGLATFCLDKDALRDEYDDLSDLNAVQMESVREWEMQFKEKYDYVGRLLKPGEEPSEYTDEEDTKDHNKQD
binds	binds	ABCD3 (human) (protein, UniProt P28288 1-659) MAAFSKYLTARNSSLAGAAFLLLCLLHKRRRALGLHGKKSGKPPLQNNEKEGKKERAVVDKVFFSRLIQILKIMVPRTFCKETGYLVLIAVMLVSRTYCDVWMIQNGTLIESGIIGRSRKDFKRYLLNFIAAMPLISLVNNFLKYGLNELKLCFRVRLTKYLYEEYLQAFTYYKMGNLDNRIANPDQLLTQDVEKFCNSVVDLYSNLSKPFLDIVLYIFKLTSAIGAQGPASMMAYLVVSGLFLTRLRRPIGKMTITEQKYEGEYRYVNSRLITNSEEIAFYNGNKREKQTVHSVFRKLVEHLHNFILFRFSMGFIDSIIAKYLATVVGYLVVSRPFLDLSHPRHLKSTHSELLEDYYQSGRMLLRMSQALGRIVLAGREMTRLAGFTARITELMQVLKDLNHGKYERTMVSQQEKGIEGVQVIPLIPGAGEIIIADNIIKFDHVPLATPNGDVLIRDLNFEVRSGANVLICGPNGCGKSSLFRVLGELWPLFGGRLTKPERGKLFYVPQRPYMTLGTLRDQVIYPDGREDQKRKGISDLVLKEYLDNVQLGHILEREGGWDSVQDWMDVLSGGEKQRMAMARLFYHKPQFAILDECTSAVSVDVEGYIYSHCRKVGITLFTVSHRKSLWKHHEYYLHMDGRGNYEFKQITEDTVEFGS
binds	binds	RPN1 (human) (protein, UniProt P04843 24-607) ASSEAPPLINEDVKRTVDLSSHLAKVTAEVVLAHLGGGSTSRATSFLLALEPELEARLAHLGVQVKGEDEEENNLEVRETKIKGKSGRFFTVKLPVALDPGAKISVIVETVYTHVLHPYPTQITQSEKQFVVFEGNHYFYSPYPTKTQTMRVKLASRNVESYTKLGNPTRSEDLLDYGPFRDVPAYSQDTFKVHYENNSPFLTITSMTRVIEVSHWGNIAVEENVDLKHTGAVLKGPFSRYDYQRQPDSGISSIRSFKTILPAAAQDVYYRDEIGNVSTSHLLILDDSVEMEIRPRFPLFGGWKTHYIVGYNLPSYEYLYNLGDQYALKMRFVDHVFDEQVIDSLTVKIILPEGAKNIEIDSPYEISRAPDELHYTYLDTFGRPVIVAYKKNLVEQHIQDIVVHYTFNKVLMLQEPLLVVAAFYILFFTVIIYVRLDFSITKDPAAEARMKVACITEQVLTLVNKRIGLYRHFDETVNRYKQSRDISTLNSGKKSLETEHKALTSEIALLQSRLKTEGSDLCDRVSEMQKLDAQVKELVLKSAVEAERLVAGKLKKDTYIENEKLISGKRQELVTKIDHILDAL
binds	binds	MBOAT7 (human) (protein, UniProt Q96N66 1-472) MSPEEWTYLVVLLISIPIGFLFKKAGPGLKRWGAAAVGLGLTLFTCGPHTLHSLVTILGTWALIQAQPCSCHALALAWTFSYLLFFRALSLLGLPTPTPFTNAVQLLLTLKLVSLASEVQDLHLAQRKEMASGFSKGPTLGLLPDVPSLMETLSYSYCYVGIMTGPFFRYRTYLDWLEQPFPGAVPSLRPLLRRAWPAPLFGLLFLLSSHLFPLEAVREDAFYARPLPARLFYMIPVFFAFRMRFYVAWIAAECGCIAAGFGAYPVAAKARAGGGPTLQCPPPSSPEKAASLEYDYETIRNIDCYSTDFCVRVRDGMRYWNMTVQWWLAQYIYKSAPARSYVLRSAWTMLLSAYWHGLHPGYYLSFLTIPLCLAAEGRLESALRGRLSPGGQKAWDWVHWFLKMRAYDYMCMGFVLLSLADTLRYWASIYFCIHFLALAALGLGLALGGGSPSRRKAASQPTSLAPEKLREE
